In publication PMC12040169 (PLOS Biology, 2025):
This is one part of the list.

system: T1, CTL2-GFP (C. trachomatis L2/434/Bu, GFP-expressing); design: species or system HeLa; Intracellular C. trachomatis growth in HeLa cells, bulk GFP fluorescence relative to DMSO; conditions: bulk GFP, single well; 28.5 h, 10 µM; inhibitor
T1 construct: L2/434/Bu, GFP-expressing

First: O=C(Nc1ccc2n(c1=O)C[C@H]1C[C@@H]2CN(C(=O)COc2ccccc2)C1)C1CCCCC1 [CBK289175]
Second: COC(=O)[C@@H]1CN(C(=O)Nc2ccccc2)CCN1C(=O)C1CCCCC1 [CBK289607]
The “% of control remaining” value of the first is higher: 148.257% for the first, 133.756% for the second.

Compared with `CC(C)c1nn(C)c(N(C)C)c1CNCCc1cnn(C)c1` [CBK305135], `CN(C)Cc1ccccc1Cn1cncc1-c1cnn(C)c1` [CBK281764] is higher in “% of control remaining” value: 111.367% for the first, 116.555% for the second.

Going from `O=C(NCc1cccs1)c1ccc(-c2ccc(OC(F)(F)F)cc2)nc1` [CBK156221] to `CCOC(=O)c1cc(-c2ccc(OC)cc2)nn1-c1ccc(C(=O)O)cc1` [CBK296133], the “% of control remaining” value rises from 73.3125% to 109.972%.

Compared with `CN(C)c1cccc2c(S(=O)(=O)n3c(=O)n(CCc4c[nH]c5ccccc45)c4ccccc43)cccc12` [CBK106511], `O=C(Nc1ccccc1C(=O)NCc1ccccc1)c1cccc(F)c1` [CBK269351] is higher in “% of control remaining” value: 113.3% for the first, 157.933% for the second.

Going from `CCn1c(C2CCN(C(=O)c3ccc(C)c(Cl)c3)CC2)nn(C)c1=O` [CBK307280] to `COc1ccc2c(c1)cc(C(=O)N1CCCn3cncc3C1)n2C` [CBK306516], the “% of control remaining” value falls from 135.951% to 126.148%.

First: CCc1nccn1CC(=O)NCC(C)n1nc(C)cc1C (stereo not drawn) [CBK281638]
Second: CCN1CCc2cc(-c3cncn3CCCn3nc(C)cc3C)ccc21 [CBK281572]
The “% of control remaining” value of the first is higher: 135.135% for the first, 105.211% for the second.

Compared with `O=C(Nc1c(F)cccc1F)N(Cc1cc(F)cc(F)c1)CC1CCNCC1` [CBK049795], `COc1ccc(CCCC(=O)Nc2cc(N3CCNCC3)ncn2)cc1OC` [CBK107856] is higher in “% of control remaining” value: 71.084% for the first, 97.9692% for the second.

Compared with `CCc1noc(CN2CCCC(c3ccc(C(=O)O)cc3)C2)n1` (stereo not drawn) [CBK307102], `CCCOC1CCCN(C(=O)c2ccc(-c3ccc(Cl)cn3)cc2)C1` (stereo not drawn) [CBK306540] is higher in “% of control remaining” value: 108.045% for the first, 145.979% for the second.

Going from `CC1CCCN(c2ccc(NC(=O)c3cccs3)cc2[N+](=O)[O-])C1` (stereo not drawn) [CBK266402] to `CC(=O)Nc1ccc(-c2csc(N3CCN(C)CC3)n2)cc1` [CBK305865], the “% of control remaining” value rises from 106.806% to 132.055%.

Going from `Cc1cc(NC(=O)Nc2cccc(Cl)c2C)no1` [CBK288245] to `COc1cc(NC(=O)Nc2ccccc2OC)c(OC)cc1Cl` [CBK270329], the “% of control remaining” value rises from 107.118% to 127.633%.

First: CC(C)[C@@H](CO)Nc1cc(-c2cccc(Br)c2)nc2ccnn12 [CBK037117]
Second: CC(C)Cc1csc2nc(-c3ccc(Br)cc3)oc(=O)c12 [CBK026692]
The “% of control remaining” value of the first is higher: 214.325% for the first, 107.369% for the second.

Compared with `O=C(Nc1ccc(-c2nc3ccccc3o2)c(O)c1)c1ccc(-c2cccc(Cl)c2)o1` [CBK263422], `NCc1ccc(CN(Cc2cccc(Cl)c2)C(=O)NC(c2ccccc2)c2ccccc2)cc1` [CBK046087C] is lower in “% of control remaining” value: 103.659% for the first, 54.0897% for the second.

Compared with `CCN1CC2(CCN(CCCC#N)CC2)c2ccccc21` [CBK136995], `COc1cccc2c3c([nH]c12)C1(CCN(CCCC#N)CC1)N(C(C)=O)CC3` [CBK039722] is higher in “% of control remaining” value: 117.113% for the first, 118.667% for the second.

Compared with `CC(C)n1c(=O)n(CC(=O)N(C)C2CCCCC2)c2cccnc21` [CBK283695], `Cc1nn(CC(=O)N2CCCCC2C)c(=O)c2cc3occc3n12` (stereo not drawn) [CBK283622] is higher in “% of control remaining” value: 125.15% for the first, 127.733% for the second.

First: OCCN(Cc1cccnc1)Cc1cccn1-c1cccc(F)c1 [CBK283018]
Second: O=C(CCCc1ccccc1)Nc1ccc(F)cc1[N+](=O)[O-] [CBK265446]
The “% of control remaining” value of the first is higher: 141.397% for the first, 119.294% for the second.

First: Cn1nc([N+](=O)[O-])nc1Sc1nnnn1-c1ccc(C(=O)O)cc1 [CBK266961]
Second: CC(CC(=O)O)CC(=O)Nc1ccc(C(=O)O)cc1 (stereo not drawn) [CBK265560]
The “% of control remaining” value of the first is lower: 101.945% for the first, 111.387% for the second.

Going from `O=c1[nH]c2cccc(O)c2o1` [CBK048613] to `O=C1OCC(O)=C1C(c1ccccc1)C1CC1` (stereo not drawn) [CBK010731], the “% of control remaining” value falls from 155.733% to 124.449%.

Compared with `O=S(=O)(Nc1cccc(Cl)c1)c1ccc(Cl)c(Cl)c1` [CBK044636], `O=C(Nc1cccc(OC(=O)c2cc(S(=O)(=O)N3CCCCC3)ccc2Cl)c1)c1ccco1` [CBK262186] is lower in “% of control remaining” value: 111.382% for the first, 29.3851% for the second.

Going from `Cc1ccc(C(=O)CN2CCC3(CC2)CC(=O)c2cc(Br)ccc2O3)cc1` [CBK162266] to `COc1cc(C(=O)N2CCC3(CC2)NC(=O)c2cc(C)ccc2O3)cc(OC)c1C` [CBK166273], the “% of control remaining” value rises from 119.495% to 125.168%.

First: CS(=O)(=O)c1nsc(Cl)n1 [CBK007229]
Second: Cc1ncn(Cc2nc(-c3ccsc3)no2)c(=O)c1C [CBK304158]
The “% of control remaining” value of the first is lower: 100.368% for the first, 118.695% for the second.

First: COc1ccccc1/C=C/CN1CCNC(=O)C1CC(=O)O (stereo not drawn) [CBK269845]
Second: CC(=O)Nc1ccc(S(=O)(=O)N2CCN(C/C=C/c3ccccc3)CC2)cc1 [CBK261545]
The “% of control remaining” value of the first is higher: 117.122% for the first, 78.794% for the second.

Going from `CN(C)c1ncnc2[nH]ncc12` [CBK016810] to `CC1(C)Cc2c(c(-c3ccco3)nc3[nH]nc(N)c23)CO1` [CBK009252], the “% of control remaining” value rises from 92.937% to 130.191%.

First: COc1ccc(CN2CCN(S(=O)(=O)c3ccc(Cl)cc3)CC2)cc1OC [CBK264204G]
Second: Cc1ccc(N2CCN(S(=O)(=O)c3ccc(I)cc3)CC2)c(C)c1 [CBK098562]
The “% of control remaining” value of the first is lower: 86.2824% for the first, 123.699% for the second.

Compared with `CCc1cc(C(=O)OC)c(NC(=S)Nc2nc3cc(C)c(C)cc3s2)s1` [CBK267116], `Cc1ccccc1C(=O)NC(=S)Nc1sc2c(c1C#N)CCCC2` [CBK264403] is lower in “% of control remaining” value: 185.797% for the first, 100% for the second.

First: O=C(c1cccs1)N(Cc1ccco1)c1ccc(O)cc1 [CBK269256]
Second: CCN(Cc1ccccc1)Cc1ccco1 [CBK261884]
The “% of control remaining” value of the first is higher: 123.573% for the first, 110.799% for the second.

Going from `CCn1ncc(CN2C3CCC2CC(O)(c2cccc(F)c2)C3)c1C` (stereo not drawn) [CBK282754] to `CCCc1cc(CNC(=O)c2cc(C3CC3)nn2C)on1` [CBK282048], the “% of control remaining” value falls from 127.177% to 95.4509%.

Compared with `C1=C(CN2CCn3nc(CNc4cnccn4)cc3C2)CCCC1` [CBK307406], `CCN(CC(=O)N1CCN(Cc2ccc3c(c2)OCO3)CC1)S(=O)(=O)c1ccccc1` [CBK269436] is lower in “% of control remaining” value: 186.266% for the first, 100.149% for the second.

Going from `Cc1ccc(C2=NN(C(=O)CCC(=O)O)C(c3cc4cccc(C)c4[nH]c3=O)C2)cc1` (stereo not drawn) [CBK296927] to `Cc1ccc(-c2csc3c(=O)[nH]c(N4CCCC(C(=O)NCc5cccnc5)C4)nc23)cc1` (stereo not drawn) [CBK215546], the “% of control remaining” value rises from 103.319% to 145.903%.

First: O=C(CNS(=O)(=O)Cc1ccccc1[N+](=O)[O-])Nc1ccc(F)cc1 [CBK042228]
Second: CNC(=O)c1sc2ccccc2c1C1CCN(S(=O)(=O)c2ccc(C)c(C)c2)C1 (stereo not drawn) [CBK285877]
The “% of control remaining” value of the first is higher: 137.834% for the first, 109.513% for the second.

First: O=C(O)COCc1cc(-c2ccc3c(c2)OCO3)on1 [CBK286883]
Second: CC(C)(C)c1ccc(-c2nc(O)c(CC(=O)O)s2)cc1 [CBK067734]
The “% of control remaining” value of the first is lower: 106.616% for the first, 143.798% for the second.

Compared with `NC(=O)c1ccccc1NC(=S)NC(=O)c1cc2ccccc2o1` [CBK265633], `COc1cccc(OCC(=O)Nc2ccc(Cl)cc2C(=O)O)c1` [CBK264208] is higher in “% of control remaining” value: 100% for the first, 136.886% for the second.

First: CN(C(=O)CN)c1nc2c(s1)CC(c1ccccc1)CC2 (stereo not drawn) [CBK304298C]
Second: NC(=O)Cn1cc(CNC2(c3ccccc3)CC2)c2ccccc21 [CBK282776]
The “% of control remaining” value of the first is higher: 112.806% for the first, 79.8103% for the second.

Compared with `O=C1NC(=O)C(c2ccccc2)(c2ccccn2)N1` (stereo not drawn) [CBK288455], `O=C1CCCN1c1ccc(S(=O)(=O)N2CCN(c3ccccn3)CC2)cc1` [CBK268237] is higher in “% of control remaining” value: 103.652% for the first, 157.103% for the second.

Compared with `N/C(=N\O)c1ccc(OC(F)(F)F)cc1` [CBK019865], `CC(NC(=O)Nc1ccccc1O)(C(F)(F)F)C(F)(F)F` [CBK268019] is lower in “% of control remaining” value: 142.716% for the first, 77.3459% for the second.

Compared with `O=C(NC(Cc1cccs1)c1nccs1)c1cccnc1` (stereo not drawn) [CBK285133], `O=C1Nc2ccc(C(=O)NCC(O)CO)cc2/C1=C/c1c[nH]c2ncccc12` (stereo not drawn) [CBK115363C] is lower in “% of control remaining” value: 107.41% for the first, 74.9096% for the second.

First: CCOc1cccc(CNc2nn[nH]n2)c1OCc1ccc(C)cc1 [CBK288127]
Second: O=[N+]([O-])c1nn(-c2ccc(Cl)cc2)[n+]([O-])c1NCc1ccccn1 [CBK268270]
The “% of control remaining” value of the first is higher: 100.334% for the first, 85.1097% for the second.

Compared with `Cc1nn(Cc2c(F)cccc2Cl)c(C)c1NC(=O)c1cnn2c(C(F)F)cc(-c3ccccc3)nc12` [CBK267634], `Cc1cc(C)nc(N2CCC(c3cc(CCOc4ccc(C(F)(F)F)cc4)[nH]n3)C2)n1` (stereo not drawn) [CBK286073] is lower in “% of control remaining” value: 115.427% for the first, 108.109% for the second.

Compared with `Nc1nonc1-c1nc2ccccc2o1` [CBK009829], `C#CCn1nnc2ccccc21` [CBK028164] is lower in “% of control remaining” value: 143.761% for the first, 95.933% for the second.

Going from `O=C(O)CCn1cc(/C=C2\SC(=S)NC2=O)c(-c2cccc(Br)c2)n1` [CBK265287] to `O=C(Nc1cc(N2CCCS2(=O)=O)ccc1F)c1cccnc1O` [CBK306320], the “% of control remaining” value falls from 100% to 90.7343%.

Going from `CC1(C)[C@H]2CC/C(=N/O)[C@]1(C)NC2=O` [CBK006513] to `Cc1ccc(CN(CCCN2CCOCC2)Cc2ccoc2)o1` [CBK283234], the “% of control remaining” value rises from 125.833% to 132.228%.

For `S=C(NCCN1CCCCC1)NCc1ccccc1` [CBK263066], the “% of control remaining” value was 96.6416%.
